Some of the results follow.
How the values were obtained:
Test in all cases: log2 fold change, soluble protein after heating vs DMSO (PISA); higher = thermal stabilisation; K562 lysate, 10 uM; active = over 0.2 and 3.5 SD of the protein, either way, in both replicates (recomputed)
[1] = compound: C#Cc1cccc(Nc2ncnc3cc(OCCOC)c(OCCOC)cc23)c1 [erlotinib]
Summary of the method: (§1)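 Values give the log-two fold change in thermal stability against solvent controls, from duplicates. Crude K562 extract at 1 mg/mL protein, made by dounce homogenisation in PBS pH 7.4 with 1 mM MgCl2, was treated with 10 μM compound for 30 min. After 3 min heating across 48°C-58°C, aliquots were pooled, adjusted to 0.5% NP-40 at 4°C and centrifuged at 21,000xg for 90 min. The supernatant was measured by TMTpro 16plex LC-MS/MS with channel sums equalised.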

Sequences of proteins named here, by UniProt entry; tags and fusion partners are left off. A change or cut given only in a name is not applied to a line headed by its entry.
UniProt Q06418: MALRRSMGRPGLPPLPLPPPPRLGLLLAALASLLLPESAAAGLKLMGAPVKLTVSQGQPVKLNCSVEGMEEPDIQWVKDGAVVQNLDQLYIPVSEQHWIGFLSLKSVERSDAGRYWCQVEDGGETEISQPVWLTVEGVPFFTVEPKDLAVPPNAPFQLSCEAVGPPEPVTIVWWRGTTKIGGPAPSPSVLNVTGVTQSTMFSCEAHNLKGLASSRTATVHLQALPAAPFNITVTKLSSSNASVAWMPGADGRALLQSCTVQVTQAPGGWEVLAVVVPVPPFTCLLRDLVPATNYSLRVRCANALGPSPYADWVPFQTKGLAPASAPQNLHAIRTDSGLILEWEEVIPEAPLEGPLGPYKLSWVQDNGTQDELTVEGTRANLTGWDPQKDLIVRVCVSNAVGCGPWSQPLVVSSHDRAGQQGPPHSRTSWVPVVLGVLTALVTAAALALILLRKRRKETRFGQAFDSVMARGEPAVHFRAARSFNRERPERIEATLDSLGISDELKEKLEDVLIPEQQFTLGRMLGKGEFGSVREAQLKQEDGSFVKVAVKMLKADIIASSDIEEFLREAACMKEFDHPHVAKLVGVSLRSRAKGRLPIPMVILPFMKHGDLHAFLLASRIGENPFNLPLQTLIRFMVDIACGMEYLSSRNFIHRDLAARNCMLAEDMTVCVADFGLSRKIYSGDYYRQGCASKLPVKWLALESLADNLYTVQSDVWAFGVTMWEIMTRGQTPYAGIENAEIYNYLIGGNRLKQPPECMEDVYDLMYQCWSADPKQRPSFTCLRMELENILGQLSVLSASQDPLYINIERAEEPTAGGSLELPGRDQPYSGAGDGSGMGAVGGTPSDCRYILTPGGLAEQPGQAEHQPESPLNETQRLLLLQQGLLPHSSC
UniProt Q9C0H2: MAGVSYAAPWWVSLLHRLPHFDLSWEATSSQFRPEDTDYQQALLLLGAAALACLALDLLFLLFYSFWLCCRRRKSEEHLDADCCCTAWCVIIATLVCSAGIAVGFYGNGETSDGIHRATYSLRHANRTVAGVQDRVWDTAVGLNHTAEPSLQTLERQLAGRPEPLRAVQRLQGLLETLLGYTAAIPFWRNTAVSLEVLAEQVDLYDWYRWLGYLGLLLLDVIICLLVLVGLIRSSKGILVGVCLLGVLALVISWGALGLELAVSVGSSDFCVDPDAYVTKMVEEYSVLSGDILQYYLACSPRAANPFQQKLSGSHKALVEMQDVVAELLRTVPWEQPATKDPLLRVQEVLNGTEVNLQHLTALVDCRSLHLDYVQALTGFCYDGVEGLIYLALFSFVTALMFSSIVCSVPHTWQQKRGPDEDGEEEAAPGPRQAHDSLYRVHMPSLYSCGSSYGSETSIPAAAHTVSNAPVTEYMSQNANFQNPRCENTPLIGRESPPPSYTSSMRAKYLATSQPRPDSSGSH
UniProt O75896: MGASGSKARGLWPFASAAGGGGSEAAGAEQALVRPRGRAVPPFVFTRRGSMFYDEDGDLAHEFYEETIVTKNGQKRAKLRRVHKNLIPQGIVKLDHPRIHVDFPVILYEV
UniProt Q86VQ6, whole entry, looked up: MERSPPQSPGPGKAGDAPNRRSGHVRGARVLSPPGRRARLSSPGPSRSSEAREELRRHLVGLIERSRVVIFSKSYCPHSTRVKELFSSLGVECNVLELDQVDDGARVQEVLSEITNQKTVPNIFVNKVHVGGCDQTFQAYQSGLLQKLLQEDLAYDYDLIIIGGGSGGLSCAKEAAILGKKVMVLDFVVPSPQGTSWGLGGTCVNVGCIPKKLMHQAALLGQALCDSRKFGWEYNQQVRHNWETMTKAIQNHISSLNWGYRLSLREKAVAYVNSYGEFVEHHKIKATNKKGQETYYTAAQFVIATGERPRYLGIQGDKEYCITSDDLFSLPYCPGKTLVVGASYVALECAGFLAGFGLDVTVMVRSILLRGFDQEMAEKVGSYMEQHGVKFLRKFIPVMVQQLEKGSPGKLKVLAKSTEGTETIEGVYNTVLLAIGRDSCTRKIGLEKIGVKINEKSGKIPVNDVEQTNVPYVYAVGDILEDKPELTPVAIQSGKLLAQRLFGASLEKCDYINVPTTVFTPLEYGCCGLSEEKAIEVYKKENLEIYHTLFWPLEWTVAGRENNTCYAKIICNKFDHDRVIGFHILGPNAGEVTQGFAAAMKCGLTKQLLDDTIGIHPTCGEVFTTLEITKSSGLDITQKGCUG
UniProt P41226: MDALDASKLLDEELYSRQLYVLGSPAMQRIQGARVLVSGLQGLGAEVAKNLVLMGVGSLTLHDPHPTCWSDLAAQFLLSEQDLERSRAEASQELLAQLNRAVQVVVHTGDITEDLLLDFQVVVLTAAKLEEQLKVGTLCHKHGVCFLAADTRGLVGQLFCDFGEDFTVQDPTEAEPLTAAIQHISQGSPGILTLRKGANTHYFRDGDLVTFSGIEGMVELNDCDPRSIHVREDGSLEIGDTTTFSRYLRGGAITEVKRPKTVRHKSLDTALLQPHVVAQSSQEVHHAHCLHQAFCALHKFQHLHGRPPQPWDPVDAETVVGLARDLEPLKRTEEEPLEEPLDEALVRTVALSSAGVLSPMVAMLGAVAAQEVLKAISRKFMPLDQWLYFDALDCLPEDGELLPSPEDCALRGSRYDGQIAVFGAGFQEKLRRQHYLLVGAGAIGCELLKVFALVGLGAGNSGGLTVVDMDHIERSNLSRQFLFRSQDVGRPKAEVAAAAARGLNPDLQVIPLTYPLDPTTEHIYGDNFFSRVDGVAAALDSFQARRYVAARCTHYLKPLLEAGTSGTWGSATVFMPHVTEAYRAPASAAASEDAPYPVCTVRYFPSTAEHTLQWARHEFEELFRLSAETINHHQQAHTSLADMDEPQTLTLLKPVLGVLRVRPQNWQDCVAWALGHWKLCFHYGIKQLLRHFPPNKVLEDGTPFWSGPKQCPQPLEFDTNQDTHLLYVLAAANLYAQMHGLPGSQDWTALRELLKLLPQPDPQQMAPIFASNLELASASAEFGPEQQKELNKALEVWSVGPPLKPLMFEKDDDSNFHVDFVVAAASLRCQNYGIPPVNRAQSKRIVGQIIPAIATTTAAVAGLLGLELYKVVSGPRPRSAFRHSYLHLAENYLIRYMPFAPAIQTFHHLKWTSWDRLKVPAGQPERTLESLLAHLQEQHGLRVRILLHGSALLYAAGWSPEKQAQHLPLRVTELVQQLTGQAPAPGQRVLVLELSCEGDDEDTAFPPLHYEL
UniProt Q86VQ3: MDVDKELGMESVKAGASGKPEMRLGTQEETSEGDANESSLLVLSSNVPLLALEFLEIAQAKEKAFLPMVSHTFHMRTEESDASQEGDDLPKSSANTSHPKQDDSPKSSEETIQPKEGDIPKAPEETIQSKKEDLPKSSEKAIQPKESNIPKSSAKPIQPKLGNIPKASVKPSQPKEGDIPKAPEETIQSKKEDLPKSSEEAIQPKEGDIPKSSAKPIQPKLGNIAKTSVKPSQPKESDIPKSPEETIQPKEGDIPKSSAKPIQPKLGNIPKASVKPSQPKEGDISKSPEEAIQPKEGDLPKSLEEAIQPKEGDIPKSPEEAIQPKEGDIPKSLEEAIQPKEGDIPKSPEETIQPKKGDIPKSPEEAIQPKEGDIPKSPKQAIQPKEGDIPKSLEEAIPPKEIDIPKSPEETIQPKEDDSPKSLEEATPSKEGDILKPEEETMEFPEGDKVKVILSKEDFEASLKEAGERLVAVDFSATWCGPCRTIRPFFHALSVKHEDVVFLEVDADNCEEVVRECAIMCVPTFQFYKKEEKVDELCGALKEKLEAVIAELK
UniProt O94941: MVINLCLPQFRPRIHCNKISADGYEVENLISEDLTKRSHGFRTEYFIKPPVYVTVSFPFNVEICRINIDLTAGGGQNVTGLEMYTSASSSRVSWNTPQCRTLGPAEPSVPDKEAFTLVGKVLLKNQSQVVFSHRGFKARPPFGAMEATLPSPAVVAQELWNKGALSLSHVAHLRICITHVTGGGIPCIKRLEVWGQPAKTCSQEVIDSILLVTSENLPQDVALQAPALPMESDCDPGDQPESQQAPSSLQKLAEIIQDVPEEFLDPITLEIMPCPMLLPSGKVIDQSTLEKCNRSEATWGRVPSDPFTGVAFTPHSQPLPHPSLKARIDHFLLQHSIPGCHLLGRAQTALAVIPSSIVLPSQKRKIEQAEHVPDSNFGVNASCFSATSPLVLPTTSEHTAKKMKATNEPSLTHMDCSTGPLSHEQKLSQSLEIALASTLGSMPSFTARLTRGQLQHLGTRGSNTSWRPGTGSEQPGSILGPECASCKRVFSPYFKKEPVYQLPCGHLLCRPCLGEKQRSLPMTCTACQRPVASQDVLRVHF
UniProt Q9NNX1: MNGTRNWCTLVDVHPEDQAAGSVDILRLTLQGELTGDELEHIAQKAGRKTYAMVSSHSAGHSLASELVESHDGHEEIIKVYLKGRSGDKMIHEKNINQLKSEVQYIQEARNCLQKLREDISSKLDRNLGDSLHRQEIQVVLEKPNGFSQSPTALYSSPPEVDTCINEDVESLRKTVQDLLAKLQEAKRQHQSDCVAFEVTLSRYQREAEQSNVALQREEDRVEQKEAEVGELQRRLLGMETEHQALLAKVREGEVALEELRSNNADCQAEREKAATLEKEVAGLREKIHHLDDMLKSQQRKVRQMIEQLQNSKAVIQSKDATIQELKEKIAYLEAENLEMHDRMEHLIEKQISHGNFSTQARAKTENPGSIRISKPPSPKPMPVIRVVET
UniProt Q96RT8, whole entry, looked up: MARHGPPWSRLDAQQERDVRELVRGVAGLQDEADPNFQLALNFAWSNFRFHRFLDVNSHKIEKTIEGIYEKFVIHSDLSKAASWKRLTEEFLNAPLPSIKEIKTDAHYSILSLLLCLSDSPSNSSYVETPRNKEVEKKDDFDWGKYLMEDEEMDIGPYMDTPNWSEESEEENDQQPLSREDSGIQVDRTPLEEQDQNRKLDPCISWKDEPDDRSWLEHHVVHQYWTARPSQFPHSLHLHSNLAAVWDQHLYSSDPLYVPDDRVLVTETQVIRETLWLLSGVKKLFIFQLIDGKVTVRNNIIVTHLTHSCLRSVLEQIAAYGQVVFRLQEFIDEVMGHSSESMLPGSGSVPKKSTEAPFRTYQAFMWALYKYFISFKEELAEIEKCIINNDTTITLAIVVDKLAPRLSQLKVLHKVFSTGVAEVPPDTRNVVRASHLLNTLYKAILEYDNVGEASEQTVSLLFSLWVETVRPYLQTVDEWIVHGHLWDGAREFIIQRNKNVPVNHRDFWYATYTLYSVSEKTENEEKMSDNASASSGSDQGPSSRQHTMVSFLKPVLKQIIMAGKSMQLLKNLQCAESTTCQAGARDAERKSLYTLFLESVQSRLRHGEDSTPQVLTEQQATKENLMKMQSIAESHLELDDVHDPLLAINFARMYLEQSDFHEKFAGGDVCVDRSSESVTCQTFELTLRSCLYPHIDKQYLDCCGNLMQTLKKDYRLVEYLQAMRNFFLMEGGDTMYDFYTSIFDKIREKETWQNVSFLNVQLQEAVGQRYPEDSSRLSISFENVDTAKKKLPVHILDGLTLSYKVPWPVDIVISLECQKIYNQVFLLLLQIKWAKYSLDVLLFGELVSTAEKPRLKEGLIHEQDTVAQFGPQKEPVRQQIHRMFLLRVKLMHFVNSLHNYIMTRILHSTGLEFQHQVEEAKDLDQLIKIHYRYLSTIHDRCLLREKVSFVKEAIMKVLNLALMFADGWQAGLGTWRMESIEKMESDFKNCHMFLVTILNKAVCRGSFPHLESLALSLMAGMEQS
UniProt P04350, whole entry, looked up: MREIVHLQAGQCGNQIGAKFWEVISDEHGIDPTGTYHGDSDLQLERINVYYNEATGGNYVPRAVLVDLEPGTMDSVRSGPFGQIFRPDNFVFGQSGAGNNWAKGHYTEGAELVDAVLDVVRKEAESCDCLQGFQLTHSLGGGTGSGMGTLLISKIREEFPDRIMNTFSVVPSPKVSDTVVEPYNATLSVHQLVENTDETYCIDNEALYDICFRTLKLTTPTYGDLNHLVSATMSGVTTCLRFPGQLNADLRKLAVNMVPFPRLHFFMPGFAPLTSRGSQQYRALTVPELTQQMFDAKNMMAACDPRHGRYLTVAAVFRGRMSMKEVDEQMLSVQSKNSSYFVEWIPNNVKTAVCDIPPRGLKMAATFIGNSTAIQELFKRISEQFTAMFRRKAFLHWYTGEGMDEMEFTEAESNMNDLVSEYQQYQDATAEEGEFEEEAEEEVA
UBE2L5, A0A1B0GUS4, UniProt A0A1B0GUS4, whole entry, looked up: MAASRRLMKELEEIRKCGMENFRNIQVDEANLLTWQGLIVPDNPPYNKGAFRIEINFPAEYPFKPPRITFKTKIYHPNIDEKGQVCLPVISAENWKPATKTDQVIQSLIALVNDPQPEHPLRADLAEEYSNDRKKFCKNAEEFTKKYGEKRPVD
UniProt O00124: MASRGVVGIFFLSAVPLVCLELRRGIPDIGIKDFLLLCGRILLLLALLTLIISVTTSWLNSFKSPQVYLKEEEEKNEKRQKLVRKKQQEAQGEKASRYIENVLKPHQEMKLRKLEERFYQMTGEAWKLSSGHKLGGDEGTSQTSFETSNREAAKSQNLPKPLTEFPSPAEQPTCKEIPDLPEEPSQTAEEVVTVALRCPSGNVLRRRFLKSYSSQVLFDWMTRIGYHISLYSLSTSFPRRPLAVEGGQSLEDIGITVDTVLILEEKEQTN

[2] = compound: C1=CC(=CC=C1C2=NC3=C(N2)C=C(C=C3)C(=O)N)OC4=CC=C(C=C4)Cl
Summary of the method: as §1

[3] = compound: C1=CC2=NC=CN=C2C=C1/C=C/3\C(=O)NC(=O)S3
Summary of the method: as §1

[4] = compound: C1CCN(C1)C(=O)NC2=CC=CC(=C2)NC3=NC=C(C(=N3)NCCC4=CN=CN4)Br
Summary of the method: as §1

[5] = compound: C1CN(CCC1(CC2=CC=C(C=C2)Cl)N)C3=NC=NC4=C3C=CN4
Summary of the method: as §1

[6] = compound: C1=CC=C(C=C1)C2=NC(=C(N2)C3=CC=NC=C3)C4=CC(=C(C=C4)Cl)O
Summary of the method: as §1

[7] = compound: C1COCCN1CCN2C3=CC=CC=C3N=C2NC(=O)C4=CC(=CC=C4)[N+](=O)[O-] [IRAK-1-4 Inhibitor I]
Summary of the method: as §1

[8] = compound: C/C(=N\NC(=O)C1=CC(=CC=C1)S(=O)(=O)N2CCOCC2)/C3=C(C=CC(=C3)Cl)O
Summary of the method: as §1

[9] = compound: C1=CC2=C(C=CC(=C2)/C=C\3/C(=O)NC(=NCC4=CC=CS4)S3)N=C1
Summary of the method: as §1

[10] = compound: C1=CC=C2C(=C1)C3=NNC4=CC=CC(=C43)C2=O
Summary of the method: as §1

Measured: log2 fold change

TYW5 (UniProt A2RUC4)
inactive: [1] 0.018 | [2] -0.118 | [3] -0.231 | [4] 0.081 | [5] 0.045

UBAP2L isoform 1 (UniProt Q14157)
inactive: [3] 0.081 | [6] -0.367 | [7] 0.084

TYRO3 (UniProt Q06418)
inactive: [8] -0.171 | [9] -0.042 | [3] 0.025 | [6] -0.146 | [10] -0.089 | [4] -0.023 | [5] -0.036 | [7] 0.193

TYK2 (UniProt P29597)
inactive: [1] 0.037 | [2] -0.249 | [4] 0.192 | [5] 0.055

UBA2 (UniProt U3KQ93)
inactive: [1] 0.129 | [2] 0.109 | [4] 0.108 | [5] -0.005

TUBB2B (UniProt Q9BVA1)
inactive: [3] -0.031 | [4] -0.02 | [5] 0.143

TTYH3 isoform 4 (UniProt Q9C0H2)
inactive: [1] 0.067 | [2] -0.016

TUSC2 (UniProt O75896)
inactive: [1] -0.007 | [2] -0.136 | [3] -0.123 | [6] 0.059 | [4] -0.078 | [5] 0.006 | [7] -0.088

TUBB8B (UniProt A6NNZ2)
inactive: [8] 0.018 | [9] 0.008 | [3] 0.001 | [6] -0.069 | [10] -0.039 | [4] -0.025 | [5] 0.001 | [7] 0.042

TXNRD3 (UniProt Q86VQ6)
inactive: [1] 0.193 | [2] 0.348 | [3] 0.094 | [4] -0.139 | [5] -0.072

UBAP2L (UniProt F8W726)
inactive: [8] -0.074 | [9] 0.048 | [10] 0.168

U2SURP isoform 2 (UniProt O15042)
inactive: [1] -0.315 | [8] 0.013 | [2] -0.109 | [9] 0.121 | [10] 0.043 | [4] 0.016 | [5] 0.106

UBA7 (UniProt P41226)
inactive: [1] 0.145 | [2] -0.021

TXNDC2 (UniProt Q86VQ3)
inactive: [1] 0.039 | [2] 0.05 | [3] -0.001 | [6] -0.029 | [7] 0.031

UBOX5 (UniProt O94941)
inactive: [1] -0.035 | [2] 0.08 | [6] -0.129 | [7] -0.039

TXNRD1 isoform 7 (UniProt Q16881)
inactive: [8] 0.079 | [9] 0.011 | [3] -0.071 | [6] 0.066 | [10] -0.092 | [4] -0.049 | [5] 0.15 | [7] 0.292

U2AF1L5 (UniProt P0DN76)
inactive: [1] -0.029 | [2] 0.044 | [6] -0.066 | [4] 0.109 | [5] -0.107 | [7] 0.132

TUFT1 (UniProt Q9NNX1)
inactive: [1] 0.034 | [2] 0.194 | [3] 0.04 | [6] -0.027 | [4] -0.079 | [5] 0.071 | [7] -0.01

UCHL1 (UniProt P09936)
inactive: [4] 0.432 | [5] 0.526

TUBGCP5 (UniProt Q96RT8)
inactive: [8] 0.001 | [9] -0.026 | [3] 0.024 | [6] 0.013 | [10] 0.01 | [4] -0.003 | [5] -0.043 | [7] -0.034

TUBB4A (UniProt P04350)
inactive: [1] 0.036 | [2] 0.015 | [3] -0.016 | [6] -0.066 | [4] 0.017 | [5] -0.001 | [7] 0.086

UBN1 (UniProt Q9NPG3)
inactive: [8] 0.032 | [9] -0.056 | [10] 0.051 | [4] 0 | [5] -0.023

TXNRD2 isoform 3 (UniProt Q9NNW7)
inactive: [1] 0.024 | [2] 0.035 | [6] 0.14 | [7] -0.006

Random excerpt: two entries already listed.
TTYH3 isoform 4 (UniProt Q9C0H2)
inactive: [1] 0.067 | [2] -0.016

UBAP2L (UniProt F8W726)
inactive: [8] -0.074 | [9] 0.048 | [10] 0.168

More entries

TXNDC16 (UniProt Q9P2K2)
inactive: [1] -0.062 | [8] 0.023 | [2] -0.047 | [9] 0.014 | [6] -0.126 | [10] 0.055 | [7] 0.066

UBE2L5, A0A1B0GUS4
inactive: [1] 0.24 | [2] -0.16 | [6] 0.159 | [7] 0.145

UBE2K (UniProt D6RDM7)
inactive: [1] -0.209 | [8] -0.048 | [2] -0.088 | [9] -0.063 | [10] -0.006 | [4] 0.149 | [5] 0.08

UBE2I (UniProt H3BQQ9)
inactive: [8] -0.055 | [9] -0.234 | [3] 0.141 | [6] 0.02 | [10] 0.047 | [7] 0.142

UBXN8 (UniProt O00124)
inactive: [1] -0.011 | [2] 0.11 | [6] 0.064 | [4] 0.116 | [5] 0.205 | [7] -0.031

UBQLN1 (UniProt H0YEZ9)
inactive: [1] -0.006 | [2] -0.044

Reference: the supplement of paper PMC10849652
